In the supplement of paper PMC12819154, “High-throughput peptide-centric local stability assay extends protein–ligand identification to membrane proteins, tissues and bacteria” (Nature Structural & Molecular Biology, 2025) one finds log2 fold change data, which are given here for eleven targets.

Amino acid sequences for entries named in this document (tags omitted). A change or cut given only in a name is not applied to a line headed by its entry.
UniProt Q13596, whole entry: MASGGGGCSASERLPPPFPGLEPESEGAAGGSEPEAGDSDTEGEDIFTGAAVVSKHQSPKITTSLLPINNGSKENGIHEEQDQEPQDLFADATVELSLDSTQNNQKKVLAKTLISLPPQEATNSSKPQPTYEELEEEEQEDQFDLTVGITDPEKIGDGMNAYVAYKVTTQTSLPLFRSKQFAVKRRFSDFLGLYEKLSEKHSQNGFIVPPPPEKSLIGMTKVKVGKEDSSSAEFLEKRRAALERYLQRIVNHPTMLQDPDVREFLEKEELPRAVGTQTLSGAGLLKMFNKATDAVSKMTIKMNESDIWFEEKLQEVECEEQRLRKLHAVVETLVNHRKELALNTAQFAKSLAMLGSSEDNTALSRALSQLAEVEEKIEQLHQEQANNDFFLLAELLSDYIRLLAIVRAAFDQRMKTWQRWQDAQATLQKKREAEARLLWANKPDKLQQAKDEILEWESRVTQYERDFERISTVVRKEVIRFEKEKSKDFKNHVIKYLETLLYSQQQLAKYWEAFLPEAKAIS
UniProt Q14156: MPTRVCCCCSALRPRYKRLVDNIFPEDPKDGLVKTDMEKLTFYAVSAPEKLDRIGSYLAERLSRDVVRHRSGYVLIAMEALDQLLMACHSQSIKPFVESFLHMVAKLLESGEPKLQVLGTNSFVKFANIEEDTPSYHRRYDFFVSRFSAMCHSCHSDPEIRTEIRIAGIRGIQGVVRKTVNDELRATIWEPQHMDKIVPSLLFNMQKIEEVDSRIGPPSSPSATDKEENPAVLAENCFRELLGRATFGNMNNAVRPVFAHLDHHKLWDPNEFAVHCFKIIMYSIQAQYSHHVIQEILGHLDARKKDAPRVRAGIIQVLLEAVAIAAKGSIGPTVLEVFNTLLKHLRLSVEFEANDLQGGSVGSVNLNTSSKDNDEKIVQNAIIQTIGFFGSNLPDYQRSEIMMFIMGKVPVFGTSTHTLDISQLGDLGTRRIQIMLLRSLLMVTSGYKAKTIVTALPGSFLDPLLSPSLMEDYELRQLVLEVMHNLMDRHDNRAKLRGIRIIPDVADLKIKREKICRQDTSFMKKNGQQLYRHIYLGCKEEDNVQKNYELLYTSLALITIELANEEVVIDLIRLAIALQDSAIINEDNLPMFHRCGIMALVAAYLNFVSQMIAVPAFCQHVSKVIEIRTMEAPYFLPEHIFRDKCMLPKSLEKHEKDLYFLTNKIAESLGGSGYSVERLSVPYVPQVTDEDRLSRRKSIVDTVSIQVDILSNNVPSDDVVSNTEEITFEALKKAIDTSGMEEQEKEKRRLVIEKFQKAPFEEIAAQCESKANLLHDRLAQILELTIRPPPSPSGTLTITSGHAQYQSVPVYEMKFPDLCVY
UniProt Q13243: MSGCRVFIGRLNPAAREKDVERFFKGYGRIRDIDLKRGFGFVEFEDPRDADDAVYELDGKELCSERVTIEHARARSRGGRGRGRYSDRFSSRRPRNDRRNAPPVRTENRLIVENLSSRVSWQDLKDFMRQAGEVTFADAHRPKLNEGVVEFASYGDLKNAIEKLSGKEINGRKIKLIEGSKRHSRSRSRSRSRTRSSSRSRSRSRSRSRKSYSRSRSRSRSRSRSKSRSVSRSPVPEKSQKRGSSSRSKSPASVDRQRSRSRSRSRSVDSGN
UniProt Q13131: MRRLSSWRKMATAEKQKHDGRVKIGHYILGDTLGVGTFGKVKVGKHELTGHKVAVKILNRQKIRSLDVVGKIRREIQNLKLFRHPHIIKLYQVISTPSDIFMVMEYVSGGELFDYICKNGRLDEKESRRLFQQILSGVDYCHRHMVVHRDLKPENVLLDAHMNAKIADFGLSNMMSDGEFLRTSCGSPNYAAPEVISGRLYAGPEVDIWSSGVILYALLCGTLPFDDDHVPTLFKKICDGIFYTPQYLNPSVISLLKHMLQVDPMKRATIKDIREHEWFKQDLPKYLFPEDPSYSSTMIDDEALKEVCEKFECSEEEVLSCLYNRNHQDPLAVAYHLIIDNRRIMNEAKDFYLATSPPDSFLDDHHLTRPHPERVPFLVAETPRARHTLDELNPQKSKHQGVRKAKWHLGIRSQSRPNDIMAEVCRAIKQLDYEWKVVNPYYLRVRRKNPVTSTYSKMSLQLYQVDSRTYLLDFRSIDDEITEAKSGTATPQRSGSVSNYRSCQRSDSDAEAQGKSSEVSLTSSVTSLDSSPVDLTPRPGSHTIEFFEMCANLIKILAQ
UniProt Q14129: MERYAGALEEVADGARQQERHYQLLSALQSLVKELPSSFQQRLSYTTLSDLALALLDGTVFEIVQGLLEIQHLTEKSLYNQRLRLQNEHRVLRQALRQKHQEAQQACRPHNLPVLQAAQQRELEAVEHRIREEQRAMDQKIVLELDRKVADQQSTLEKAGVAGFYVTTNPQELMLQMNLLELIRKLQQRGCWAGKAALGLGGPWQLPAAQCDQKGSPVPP
UniProt Q14289, whole entry, looked up: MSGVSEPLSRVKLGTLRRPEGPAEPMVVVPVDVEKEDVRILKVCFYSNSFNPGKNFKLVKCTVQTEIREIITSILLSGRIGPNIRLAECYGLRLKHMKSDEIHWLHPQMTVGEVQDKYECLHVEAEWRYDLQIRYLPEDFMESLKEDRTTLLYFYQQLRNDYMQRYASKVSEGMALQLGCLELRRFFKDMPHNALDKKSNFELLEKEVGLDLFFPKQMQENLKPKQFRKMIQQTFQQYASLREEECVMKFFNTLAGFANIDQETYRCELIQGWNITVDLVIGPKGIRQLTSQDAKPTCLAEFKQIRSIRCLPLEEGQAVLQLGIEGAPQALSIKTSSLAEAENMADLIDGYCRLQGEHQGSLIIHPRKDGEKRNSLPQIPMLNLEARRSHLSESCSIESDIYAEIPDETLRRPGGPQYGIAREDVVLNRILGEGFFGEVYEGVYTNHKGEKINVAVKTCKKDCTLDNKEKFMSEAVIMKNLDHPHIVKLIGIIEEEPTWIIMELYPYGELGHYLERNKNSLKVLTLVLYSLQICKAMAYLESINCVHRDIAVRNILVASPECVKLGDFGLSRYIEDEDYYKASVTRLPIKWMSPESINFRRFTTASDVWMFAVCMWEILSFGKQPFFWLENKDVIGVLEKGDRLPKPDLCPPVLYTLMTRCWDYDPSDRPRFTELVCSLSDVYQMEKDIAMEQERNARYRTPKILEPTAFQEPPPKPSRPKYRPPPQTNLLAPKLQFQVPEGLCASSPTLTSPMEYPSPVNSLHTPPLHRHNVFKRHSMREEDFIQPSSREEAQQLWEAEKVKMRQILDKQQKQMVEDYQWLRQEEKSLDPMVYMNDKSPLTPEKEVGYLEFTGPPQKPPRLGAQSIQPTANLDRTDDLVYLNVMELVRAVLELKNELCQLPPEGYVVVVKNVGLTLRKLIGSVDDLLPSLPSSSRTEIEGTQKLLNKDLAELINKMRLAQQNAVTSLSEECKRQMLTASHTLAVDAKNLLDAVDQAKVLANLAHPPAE
UniProt Q13118: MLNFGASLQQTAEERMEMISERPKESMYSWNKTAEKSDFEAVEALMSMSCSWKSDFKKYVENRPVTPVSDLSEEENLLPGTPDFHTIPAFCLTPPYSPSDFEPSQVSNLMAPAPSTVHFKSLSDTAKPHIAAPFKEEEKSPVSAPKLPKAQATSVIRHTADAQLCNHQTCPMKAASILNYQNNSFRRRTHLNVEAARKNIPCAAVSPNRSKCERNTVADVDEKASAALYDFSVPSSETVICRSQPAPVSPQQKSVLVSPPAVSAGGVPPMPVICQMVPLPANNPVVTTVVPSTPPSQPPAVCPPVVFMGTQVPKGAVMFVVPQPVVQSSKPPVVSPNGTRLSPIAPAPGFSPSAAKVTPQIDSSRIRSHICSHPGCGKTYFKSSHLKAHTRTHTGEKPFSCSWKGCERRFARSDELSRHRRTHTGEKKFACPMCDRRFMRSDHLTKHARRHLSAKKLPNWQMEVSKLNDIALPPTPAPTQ
UniProt Q14696: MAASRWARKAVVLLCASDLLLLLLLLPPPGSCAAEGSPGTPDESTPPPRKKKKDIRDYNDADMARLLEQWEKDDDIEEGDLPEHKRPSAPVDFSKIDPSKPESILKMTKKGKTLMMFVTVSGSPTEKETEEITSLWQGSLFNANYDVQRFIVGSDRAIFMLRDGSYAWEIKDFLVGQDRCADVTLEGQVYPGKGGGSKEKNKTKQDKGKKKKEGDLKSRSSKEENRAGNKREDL
UniProt Q13371: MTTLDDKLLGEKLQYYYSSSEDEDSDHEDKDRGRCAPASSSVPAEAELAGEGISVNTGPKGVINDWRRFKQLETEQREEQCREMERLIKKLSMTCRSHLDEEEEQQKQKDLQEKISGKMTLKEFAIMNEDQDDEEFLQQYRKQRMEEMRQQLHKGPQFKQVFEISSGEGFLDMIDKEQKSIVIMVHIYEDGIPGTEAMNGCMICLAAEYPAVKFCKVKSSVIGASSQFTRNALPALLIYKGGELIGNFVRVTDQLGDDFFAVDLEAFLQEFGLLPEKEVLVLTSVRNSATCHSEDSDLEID
UniProt Q14999: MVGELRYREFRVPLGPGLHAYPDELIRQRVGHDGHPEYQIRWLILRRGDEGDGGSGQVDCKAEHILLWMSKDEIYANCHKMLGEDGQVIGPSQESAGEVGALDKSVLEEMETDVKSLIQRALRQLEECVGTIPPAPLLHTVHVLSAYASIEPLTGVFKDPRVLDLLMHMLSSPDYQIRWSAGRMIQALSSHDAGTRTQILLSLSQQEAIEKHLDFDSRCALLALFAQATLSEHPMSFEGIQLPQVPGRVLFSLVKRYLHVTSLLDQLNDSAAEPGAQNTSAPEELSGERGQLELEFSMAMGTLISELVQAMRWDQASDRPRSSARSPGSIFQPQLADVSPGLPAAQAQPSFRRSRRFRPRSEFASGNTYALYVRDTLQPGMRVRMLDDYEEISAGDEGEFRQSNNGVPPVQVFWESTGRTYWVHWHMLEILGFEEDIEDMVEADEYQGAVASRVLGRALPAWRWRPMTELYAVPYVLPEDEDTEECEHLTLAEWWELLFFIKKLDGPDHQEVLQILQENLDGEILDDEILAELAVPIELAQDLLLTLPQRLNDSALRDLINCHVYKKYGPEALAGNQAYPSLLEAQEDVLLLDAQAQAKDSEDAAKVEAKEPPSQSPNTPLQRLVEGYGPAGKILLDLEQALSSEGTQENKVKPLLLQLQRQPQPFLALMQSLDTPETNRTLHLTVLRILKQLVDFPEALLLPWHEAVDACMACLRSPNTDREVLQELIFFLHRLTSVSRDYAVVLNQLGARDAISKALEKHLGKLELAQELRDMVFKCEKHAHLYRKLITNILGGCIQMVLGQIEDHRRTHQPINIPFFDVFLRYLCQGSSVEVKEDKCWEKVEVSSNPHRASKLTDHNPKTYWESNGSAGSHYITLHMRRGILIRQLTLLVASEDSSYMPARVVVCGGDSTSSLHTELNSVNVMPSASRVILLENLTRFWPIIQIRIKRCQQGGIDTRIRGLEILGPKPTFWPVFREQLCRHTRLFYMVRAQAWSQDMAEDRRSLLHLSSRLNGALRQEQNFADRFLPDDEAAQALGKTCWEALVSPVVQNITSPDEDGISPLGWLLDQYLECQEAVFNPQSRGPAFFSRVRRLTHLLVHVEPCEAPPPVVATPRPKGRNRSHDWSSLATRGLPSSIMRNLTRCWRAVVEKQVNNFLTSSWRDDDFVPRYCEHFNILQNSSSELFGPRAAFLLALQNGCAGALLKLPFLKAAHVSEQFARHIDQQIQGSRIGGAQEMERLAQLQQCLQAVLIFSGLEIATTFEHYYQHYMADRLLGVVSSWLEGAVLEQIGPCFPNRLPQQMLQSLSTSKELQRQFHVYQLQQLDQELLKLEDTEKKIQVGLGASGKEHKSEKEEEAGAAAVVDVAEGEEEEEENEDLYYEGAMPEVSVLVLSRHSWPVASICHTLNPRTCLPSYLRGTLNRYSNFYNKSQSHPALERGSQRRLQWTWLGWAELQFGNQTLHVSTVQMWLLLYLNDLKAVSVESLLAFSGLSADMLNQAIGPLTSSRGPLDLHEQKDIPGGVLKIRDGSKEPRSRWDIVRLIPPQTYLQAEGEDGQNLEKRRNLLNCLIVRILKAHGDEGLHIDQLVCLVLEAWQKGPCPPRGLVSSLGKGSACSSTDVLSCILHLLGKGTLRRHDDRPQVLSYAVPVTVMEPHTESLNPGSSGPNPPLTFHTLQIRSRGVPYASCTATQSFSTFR

Some of the results follow. Small differences around the control level are noise.

Compound in the assay: Cc1nc(Nc2ncc(C(=O)Nc3c(C)cccc3Cl)s2)cc(N2CCN(CCO)CC2)n1 [dasatinib]
The experiment in a line: log2 fold change of tryptic peptide abundance, ligand vs vehicle (limited proteolysis) (log2 ratio); higher = more trypsin-susceptible (destabilized). The settings on record: ligand concentration: 5 uM; sample: K562 cleared lysate.
Consider “SNX1 (peptide sequence: LQQAKDEILEWESR, peptide start residue: 446) (UniProt Q13596)”, for which the log2 fold change turned out to be 0.177.

For the target “EFR3A (peptide sequence: SLLMVTSGYK, peptide start residue: 439) (UniProt Q14156)”, the log2 fold change amounted to 0.227.

As to “UniProt Q13243 (peptide sequence: GFGFVEFEDPR, peptide start residue: 38)”, the log2 fold change was -0.125.

Turning to “UniProt Q13131 (peptide sequence: SDSDAEAQGK, peptide start residue: 506)”, the log2 fold change stood at 0.256.

Consider “UniProt Q14129 (peptide sequence: VADQQSTLEK, peptide start residue: 149)”, for which the log2 fold change is 0.254.

With “UniProt Q14289 (peptide sequence: SNFELLEK, peptide start residue: 199)”, the log2 fold change was determined as 0.196.

Take “UniProt Q13118 (peptide sequence: MEMISERPK, peptide start residue: 16)”: the log2 fold change is 0.385.

As for “UniProt Q14696 (peptide sequence: LLEQWEKDDDIEEGDLPEHK, peptide start residue: 66)”, the log2 fold change was 0.0485.

On to “UniProt Q14197 (peptide sequence: SSGPGGQNVNK, peptide start residue: 84)”, for which the log2 fold change was 0.265.

Regarding “PDCL (peptide sequence: QRMEEMR, peptide start residue: 143) (UniProt Q13371)”, the log2 fold change is -0.757.

As for “CUL7 (peptide sequence: SQSHPALER, peptide start residue: 1432) (UniProt Q14999)”, the log2 fold change amounted to 0.441.
